{
  "source": "paper PMC6508746",
  "binders": {"B1": {"name": "Derlin-1 (mouse) (protein, UniProt Q99J56 1-251)", "chain": "MSDIGDWFRSIPAITRYWFAATVAVPLIGKLGIISPAYFFLWPEAFLYRFQIWRPFTATFYFPVGPGTGFLYLVNLYFLYQYSTRLEAGAFDGRPADYLFMLLFNWICIVITGLAMDMQLLMIPLIMSVLYVWAQLNRDLIVSFWFGTRFKACYLPWVILGFNYIIGGSVINELIGNLVGHLYFFLMFRYPMDLGGRNFLSTPQFLYRWLPSRRGGVSGFGVPPASMRRAADQNGGGGRHNWGQGFRLGDQ"}},
  "target": "MC80S-F (Molluscum contagiosum virus (MCV genotype 1))",
  "assay": "co-IP; anti-Flag IP of digitonin lysates of retrovirally transduced MEFs (MEF-L^d untreated; TAP1-/- MEFs +IFNɣ; MEF-L^d treated with MG132 for 8 h for the Derlin-1 blot), beads washed in 0.1% digitonin, eluted with Flag peptide or LDS sample buffer, immunoblot of eluates",
  "note": "No constants are given. Whether binding was seen depends on the method and setting. Binding seen in cells or lysates may run through a third protein. Binding calls can cover weak binding; strength is not graded here.",
  "data": [
    {"binder": "B1", "values": [
      {"measurement": "binding", "value": "binds"}
    ]}
  ]
}
